Reference: article PMC10379010, “Short Peptides of Innate Immunity Protein Tag7 (PGLYRP1) Selectively Induce Inhibition or Activation of Tumor Cell Death via TNF Receptor” (International Journal of Molecular Sciences, 2023)
Results are given in words; binding and its absence hold for the method and conditions named. For part of these data: In cells and extracts the contact can be indirect. Some results given as binding are weak or reduced against the parent protein; the word gives no strength.

Sequences of proteins named here, by UniProt entry; tags and fusion partners are left off. Residues count along the entry.
UniProt P19438, residues 30-211: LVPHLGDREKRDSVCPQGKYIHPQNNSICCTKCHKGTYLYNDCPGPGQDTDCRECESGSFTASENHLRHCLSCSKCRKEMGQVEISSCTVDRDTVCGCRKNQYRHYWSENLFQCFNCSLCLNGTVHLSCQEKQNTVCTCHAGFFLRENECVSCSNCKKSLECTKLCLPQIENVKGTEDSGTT

T1: TNFR1 receptor exposed on the cell surface of L929 cells (mouse (endogenous in L929)) (UniProt P25118)
T1 sequence: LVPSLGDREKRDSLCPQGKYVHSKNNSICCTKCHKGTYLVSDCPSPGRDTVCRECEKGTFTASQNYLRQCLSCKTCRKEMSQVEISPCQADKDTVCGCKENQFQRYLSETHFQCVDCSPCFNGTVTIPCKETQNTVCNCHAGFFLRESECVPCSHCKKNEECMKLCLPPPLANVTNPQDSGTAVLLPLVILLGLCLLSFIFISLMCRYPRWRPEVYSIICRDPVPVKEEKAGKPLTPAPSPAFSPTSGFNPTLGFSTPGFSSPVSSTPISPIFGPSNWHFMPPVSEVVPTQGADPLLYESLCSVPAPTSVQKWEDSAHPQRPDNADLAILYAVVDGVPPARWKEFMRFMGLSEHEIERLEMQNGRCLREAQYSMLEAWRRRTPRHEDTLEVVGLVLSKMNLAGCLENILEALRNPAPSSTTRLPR


What was measured:
[1] = biological target: soluble TNFR1 receptor domain (sTNFR1) (UniProt P19438); test: affinity chromatography; sTNFR1 immobilised on CNBr-activated Sepharose 4B; biotinylated peptides loaded; washed with PBS containing 0.5 M NaCl and PBS; eluted with 0.25 M triethylamine pH 12; Tricine-SDS-PAGE, blot, HRP-Streptavidin; both purified
[2] = biological target: T1, TNFR1 receptor exposed on the cell surface of L929 cells (mouse (endogenous in L929)); test: cross-linking; biotinylated peptides (1 nM) incubated 1 h with L929 cells, cross-linked with BS3; RIPA lysate; Streptavidin magnetic beads; Western blot with antibodies to TNFR1; only the binder purified

Binder | binding [1] | binding [2]
HRDVQRT (biotin (site not stated)) [biotinylated peptide 17.1A] | binds | binds
RSNYVLKG (biotin (site not stated)) [biotinylated peptide 17.1B] |  | binds weakly
